Assay [1] addresses T1, endogenous FOXM1 (human (endogenous in MCF-7)) (UniProt Q08050).
T1 sequence: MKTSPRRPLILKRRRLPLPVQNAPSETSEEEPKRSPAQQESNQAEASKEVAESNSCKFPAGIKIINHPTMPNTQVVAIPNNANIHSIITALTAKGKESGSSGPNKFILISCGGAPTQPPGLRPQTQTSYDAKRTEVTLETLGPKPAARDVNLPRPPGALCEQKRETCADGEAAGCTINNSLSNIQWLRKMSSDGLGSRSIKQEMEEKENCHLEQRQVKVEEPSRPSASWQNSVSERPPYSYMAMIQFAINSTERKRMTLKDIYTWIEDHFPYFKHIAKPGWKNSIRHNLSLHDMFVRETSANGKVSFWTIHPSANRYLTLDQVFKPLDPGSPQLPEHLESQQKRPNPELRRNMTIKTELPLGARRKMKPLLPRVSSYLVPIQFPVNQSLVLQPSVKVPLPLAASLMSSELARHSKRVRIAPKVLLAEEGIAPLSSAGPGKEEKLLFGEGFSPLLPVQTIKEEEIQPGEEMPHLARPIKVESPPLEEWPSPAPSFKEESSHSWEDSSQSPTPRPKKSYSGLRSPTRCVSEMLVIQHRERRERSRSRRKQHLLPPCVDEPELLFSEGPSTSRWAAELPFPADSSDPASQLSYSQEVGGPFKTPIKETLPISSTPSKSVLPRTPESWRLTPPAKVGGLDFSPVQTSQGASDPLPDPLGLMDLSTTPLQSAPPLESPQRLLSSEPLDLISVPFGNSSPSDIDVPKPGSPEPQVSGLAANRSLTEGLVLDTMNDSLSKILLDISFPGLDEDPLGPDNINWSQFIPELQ
Briefly: co-IP; endogenous proteins of MCF-7 cells, epirubicin (1 μM) for 0, 6 and 24 h (Figure 4 with MG132; Figure 7b vehicle); IP with an RNF168 antibody or a FOXM1 antibody, IgG as control; blot for RNF168, RNF8 and FOXM1.

Another assay concerns the target T2, HA-RNF8 (UniProt O76064).
T2 sequence: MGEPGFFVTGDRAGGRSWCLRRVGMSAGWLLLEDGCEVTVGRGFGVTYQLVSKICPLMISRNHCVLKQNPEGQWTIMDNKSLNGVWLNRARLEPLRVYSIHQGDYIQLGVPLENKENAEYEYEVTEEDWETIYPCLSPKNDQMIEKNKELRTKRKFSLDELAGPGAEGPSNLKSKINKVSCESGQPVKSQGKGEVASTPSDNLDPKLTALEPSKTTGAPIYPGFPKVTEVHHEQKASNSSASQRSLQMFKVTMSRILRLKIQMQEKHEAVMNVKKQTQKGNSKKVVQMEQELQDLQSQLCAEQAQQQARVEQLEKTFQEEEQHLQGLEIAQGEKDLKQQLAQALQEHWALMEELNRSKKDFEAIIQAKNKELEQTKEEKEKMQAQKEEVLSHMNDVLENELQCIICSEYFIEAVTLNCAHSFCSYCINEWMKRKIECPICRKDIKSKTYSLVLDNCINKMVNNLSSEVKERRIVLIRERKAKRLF
Nature of the assay: co-IP; MCF-7 cells co-transfected with HA-RNF8 and Flag-FOXM1, epirubicin (1 μM) for 0, 6 and 24 h, pretreated with 10 μM MG132; IP products with αHA probed for Flag-FOXM1 and HA-RNF8.

These are yes or no findings as the source states them, for the method shown. In cells and extracts the contact can be indirect. Some binding calls cover weakened binding; strength is not graded here. For some assays here: Tags and fused reporters may be left off the sequences shown.

B1: endogenous RNF8 (protein, UniProt O76064 1-485)
chain: T2 sequence
B1: the binding result in assay [1] was “binds”.

B2: Flag-FOXM1 (protein, UniProt Q08050 1-763)
chain: T1 sequence
As for B2, the binding result in the assay with HA-RNF8 is “binds”.
